Measured values: US20240277807A1
These are yes or no findings as the source states them, for the method shown. Some binding calls cover weakened binding; strength is not graded here.

By UniProt entry, the sequences of proteins in these tests, tags left out. Where a name states a change or a piece, a line headed by the entry shows the natural chain unless it says otherwise. Residues count along the entry.
UniProt O95390, residues 299-407: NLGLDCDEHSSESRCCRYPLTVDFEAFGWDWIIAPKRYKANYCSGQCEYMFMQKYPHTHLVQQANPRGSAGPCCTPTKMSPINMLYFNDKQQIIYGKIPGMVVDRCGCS
UniProt O14793, residues 267-375: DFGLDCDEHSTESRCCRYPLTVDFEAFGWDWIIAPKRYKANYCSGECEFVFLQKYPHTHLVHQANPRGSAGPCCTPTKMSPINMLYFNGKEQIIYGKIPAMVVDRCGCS
UniProt P22004, residues 382-513: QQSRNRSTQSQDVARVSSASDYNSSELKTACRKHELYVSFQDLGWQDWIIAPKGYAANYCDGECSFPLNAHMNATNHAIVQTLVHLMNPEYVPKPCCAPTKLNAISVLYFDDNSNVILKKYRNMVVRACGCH
UniProt P27037: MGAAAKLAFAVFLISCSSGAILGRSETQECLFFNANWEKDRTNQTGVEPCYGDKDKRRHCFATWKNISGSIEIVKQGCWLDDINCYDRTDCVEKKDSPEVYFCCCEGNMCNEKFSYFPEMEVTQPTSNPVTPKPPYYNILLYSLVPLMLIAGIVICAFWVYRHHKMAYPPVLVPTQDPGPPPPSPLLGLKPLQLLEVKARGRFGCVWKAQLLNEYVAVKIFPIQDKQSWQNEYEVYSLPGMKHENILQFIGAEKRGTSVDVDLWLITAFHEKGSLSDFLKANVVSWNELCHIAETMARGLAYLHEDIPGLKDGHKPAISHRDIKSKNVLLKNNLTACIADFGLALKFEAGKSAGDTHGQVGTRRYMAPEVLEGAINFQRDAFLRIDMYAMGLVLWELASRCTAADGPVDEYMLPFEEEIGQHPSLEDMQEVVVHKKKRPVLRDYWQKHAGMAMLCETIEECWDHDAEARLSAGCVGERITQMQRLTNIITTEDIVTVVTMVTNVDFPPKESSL

Columns and labels:
GDF11 = GDF11 (UniProt O95390); assay: Biacore SPR; ligand amine-coupled to CM5 chip, receptor-Fc as analyte
activin B = biological target: T1, activin B (UniProt P09529); assay: similar Biacore binding assay
T1 sequence (looked up): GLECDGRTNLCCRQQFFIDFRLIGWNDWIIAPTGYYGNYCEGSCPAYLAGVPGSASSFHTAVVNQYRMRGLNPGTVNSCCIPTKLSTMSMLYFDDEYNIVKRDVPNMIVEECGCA

GDF8 = GDF8 (UniProt O14793); assay: similar Biacore binding assay
BMP6 = BMP6 (UniProt P22004); assay: similar Biacore binding assay
BMP10 = biological target: T2, BMP10 (UniProt O95393); assay: similar Biacore binding assay
T2 sequence (looked up): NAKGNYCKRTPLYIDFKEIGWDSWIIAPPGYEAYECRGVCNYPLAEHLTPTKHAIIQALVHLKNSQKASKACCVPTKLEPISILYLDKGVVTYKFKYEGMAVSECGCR

Measured: binding

ActRIIA-mFc (from UniProt P27037 21-135) (Fc fusion)
binds: GDF11 | activin B | GDF8 | BMP6 | BMP10
